Results as given in article PMC11674849.
These are yes or no findings as the source states them, for the method shown. Binding seen in cells or lysates may run through a third protein. Some entries that bind do so weakly or less than the wild type.

Target: Wilms Tumor 1 (WT1) (human (endogenous in conditionally immortalized human podocytes)) (UniProt P19544)
Experiment: co-IP; lysates of V/DPDs, G0/DPDs, G1/DPDs and G2/DPDs (differentiated human podocytes stably expressing vector, APOL1 G0, G1 or G2) immunoprecipitated with 5 ug WT1 antibody, protein A+G sepharose beads, RIPA buffer, 4 °C, 4 h; washed 3x with RIPA; immunoblot

Histone Deacetylase 1 (HDAC1) (from UniProt Q13547 1-482) (enzyme)
binding: binds
